In the assay the target is MDM2 (UniProt Q00987). Nature of the assay: two-hybrid; Y2H Gold yeast; MDM2 in pGBKT7 as bait, FBXO31 or F-box-mut in PGADT7 as prey; growth and blue colour of colonies on TDO (SD/-Leu/-Trp/-His) and QDO (SD/-Leu/-Trp/-His/-Ade) after three days.

The chains behind the UniProt entries cited, without tags or fusion partners.
UniProt Q00987: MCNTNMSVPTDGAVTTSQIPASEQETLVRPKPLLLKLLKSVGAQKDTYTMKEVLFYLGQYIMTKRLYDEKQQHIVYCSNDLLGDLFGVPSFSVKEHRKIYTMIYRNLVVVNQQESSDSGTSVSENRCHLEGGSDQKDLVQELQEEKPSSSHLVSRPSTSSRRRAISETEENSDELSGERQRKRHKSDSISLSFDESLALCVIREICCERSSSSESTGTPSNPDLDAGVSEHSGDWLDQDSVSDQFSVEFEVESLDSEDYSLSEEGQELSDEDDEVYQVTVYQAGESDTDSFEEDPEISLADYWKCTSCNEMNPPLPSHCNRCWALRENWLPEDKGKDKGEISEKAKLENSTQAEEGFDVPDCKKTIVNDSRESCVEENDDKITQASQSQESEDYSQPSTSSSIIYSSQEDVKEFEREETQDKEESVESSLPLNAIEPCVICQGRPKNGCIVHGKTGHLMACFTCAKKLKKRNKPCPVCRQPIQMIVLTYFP

No constants are given. Whether binding was seen depends on the method and setting. Some results given as binding are weak or reduced against the parent protein; the word gives no strength.

B1: F-box only protein 31 (FBXO31) (protein, UniProt Q5XUX0 1-539)
chain: MAVCARLCGVGPSRGCRRRQQRRGPAETAAADSEPDTDPEEERIEASAGVGGGLCAGPSPPPPRCSLLELPPELLVEIFASLPGTDLPSLAQVCTKFRRILHTDTIWRRRCREEYGVCENLRKLEITGVSCRDVYAKLLHRYRHILGLWQPDIGPYGGLLNVVVDGLFIIGWMYLPPHDPHVDDPMRFKPLFRIHLMERKAATVECMYGHKGPHHGHIQIVKKDEFSTKCNQTDHHRMSGGRQEEFRTWLREEWGRTLEDIFHEHMQELILMKFIYTSQYDNCLTYRRIYLPPSRPDDLIKPGLFKGTYGSHGLEIVMLSFHGRRARGTKITGDPNIPAGQQTVEIDLRHRIQLPDLENQRNFNELSRIVLEVRERVRQEQQEGGHEAGEGRGRQGPRESQPSPAQPRAEAPSKGPDGTPGEDGGEPGDAVAAAEQPAQCGQGQPFVLPVGVSSRNEDYPRTCRMCFYGTGLIAGHGFTSPERTPGVFILFDEDRFGFVWLELKSFSLYSRVQATFRNADAPSPQAFDEMLKNIQSLTS
Consider B1, for which the binding result is reported as “binds”.

Values taken from article PMC10917549.
